Measured values reported in the supplement of paper PMC12578635.
This is one part of the list. Cut-off read from the data, not from the text of the source: active = 150% or more and inactive = the rest. Repeats are few or missing, and single values can be far off.

Test system: Staphylococcus aureus JE2-lux inside RAW 264.7 macrophages
Experiment: intracellular bacterial bioluminescence relative to DMSO vehicle; higher = higher intracellular bacterial metabolic activity
Details: 10 µM; treatment time 4 h; gentamicin 50 µg/ml

Intracellular bacterial bioluminescence, inactive:
Cn1c(=O)[nH]c(=O)c2c1nc1n2CC(c2ccc(Br)cc2)O1 (configuration not stated) 106%, COc1ccc(C(=O)Nc2sc3c(c2C(N)=O)CCCCC3)c(OC)c1 86.1%, Cc1ccc(-c2ncc3c(=O)n(CC(=O)Nc4nccs4)c(=O)n(C)c3n2)cc1 114%, Cn1nc(C(C)(C)C)cc1C(=O)N1CCc2c(nc(N3CCOCC3)[nH]c2=O)C1 106%, COc1cccc(-c2ocnc2C(=O)Nc2ccc(CN3CCCCC3)cc2)c1 24%, O=C(COc1ccc(Cl)cc1)Nc1nc2c(s1)CSc1ccccc1-2 128%, CCc1c(C)nc2ncnn2c1Sc1ccc(NC(=O)C2CC(=O)N(c3ccc(C)cc3)C2)cc1 (configuration not stated) 72.4%, O=C(NCc1n[nH]c(=O)c2ccccc12)Nc1c(F)cccc1F 107%, COC(=O)c1cccc(-n2nnnc2SCC(=O)Nc2ccc(F)cc2)c1 83.9%, Cc1ccc(-c2c(C(F)(F)F)nn3c(NCc4cccnc4)cc(C)nc23)cc1 81.6%, Cc1ccc(NC(=O)CN(C2=NC3CS(=O)(=O)CC3S2)c2ccc(C(C)C)cc2)cc1 (configuration not stated) 85.3%, O=C(CC1(O)C(=O)Nc2ccc(Cl)cc21)c1cccs1 (configuration not stated) 119%, CC1CCCCN1S(=O)(=O)c1ccc2c(c1)c(=O)n(CC(=O)N1CCCC1)c(=O)n2C (configuration not stated) 104%, CC(=O)c1cnc2cc(C(=O)NC(c3ccccc3)c3cccnc3)nn2c1C (configuration not stated) 128%, O=C(CSc1nnc(-c2ccco2)c(-c2ccco2)n1)c1cccs1 106%, Cc1cc(OC(=O)c2ccc(Br)o2)c([N+](=O)[O-])c(=O)[nH]1 76%, Cc1cc(N2CCOCC2)nc(SCC(=O)Nc2ccc(Cl)cc2Cl)n1 100%, Cc1ccc(-c2nsc(NC(=O)c3oc4cc(Br)ccc4c3C)n2)s1 105%, O=C(COc1coc(CN2CCN(c3ccccc3F)CC2)cc1=O)Nc1cccc([N+](=O)[O-])c1 109%, Nc1ncnc(Nc2cc(C(F)(F)F)ccc2Cl)c1[N+](=O)[O-] 101%, COC(=O)c1ccc(C(=O)Nc2nc3c(cc4c5c(cccc53)CC4)s2)cc1 104%, CN1C(=O)c2cccc(NC(=O)c3cc4c(ccc5ccccc54)oc3=O)c2C1=O 117%, CC(NC(=O)CC1CCN(C(=O)c2cc3cc(Cl)ccc3[nH]2)CC1)c1ccccc1 (configuration not stated) 87.3%, CCn1nc(C)c2ccnc(N3CCC(C(=O)Nc4cc(Cl)c(OC)cc4OC)CC3)c21 56.8%, Cc1noc(C)c1CCC(=O)N1CCC[C@@H](CNC(=O)c2ccco2)C1 110%, Cc1ccc(COc2cccc3c2CCNC3=O)cc1 66.8%, CC1(C)CC(=O)C2=C(C1)Nc1ccccc1N(CC(=O)NCc1ccncc1)C2c1ccco1 (configuration not stated) 103%, CCOc1ccc(NC(=S)NNc2nc(N3CCCC3)nc(N3CCCC3)n2)cc1 71.5%, O=C(NCc1nnnn1-c1ccccc1)c1cc(=O)c2ccccc2o1 91.6%, Cn1c(=O)c2nc(SCC(=O)c3ccc(Cl)c(Cl)c3)[nH]c2n(C)c1=O 96.6%, Cc1oc2ncnc(OCC(=O)Nc3cccc(Cl)c3C)c2c1C 95.9%, CCCCOc1ccc(NCc2cc3c(C)nn(-c4ccccc4)c3[nH]c2=O)cc1 65.5%, CCCC(=O)Nc1sc(Nc2ccc(C)cc2)nc1C(N)=O 41.8%, CCOc1cccc2sc(Nc3nc4ccc(NC(C)=O)cc4s3)nc12 116%, COc1ccc(C(CNc2nn3cnnc3c3ccccc23)N2CCOCC2)cc1 (configuration not stated) 118%, O=C(Cc1cc(=O)[nH]c(=O)[nH]1)NCCN1CCOCC1 90.6%, COCCCNC(=O)NC(c1ccccc1)c1nnc(-c2ccc(Cl)cc2)o1 (configuration not stated) 89%, O=C(O)C(Sc1nncc(-c2ccccc2)n1)c1ccccc1 (configuration not stated) 95.2%, Cc1cc(C)c2nc(NC(=O)Nc3cccc(Cl)c3)sc2c1 102%, COc1cc(NC(=O)Cn2ncn3nc4c(c3c2=O)CCCC4)cc(OC)c1 15.4%, O=C(Nc1ccc(OC(F)(F)F)cc1)c1ccc2nc[nH]c2c1 104%, COc1ccc(-c2cc(C3CC3)nc3sc(C(N)=O)c(N)c23)cc1 82.4%, Cc1sc(NC(=O)c2cc3cc([N+](=O)[O-])ccc3s2)c(C#N)c1C 109%, O=C(Nc1ccc2[nH]cnc2c1)c1ccc2nccnc2c1 97%, O=C1c2ccccc2-c2c(Nc3ccccc3)c(=O)[nH]c3cccc1c23 74.8%, COc1ccc(C(=O)/C=C2\C(=O)Nc3ccccc32)cc1 33%, Cc1oc2c(c1C(=O)O)C(=O)c1ccccc1C2=O 76%, CCOC(=O)C(C)Sc1ncnc2c1nnn2Cc1ccc(F)cc1 (configuration not stated) 48.3%, COc1cccc(NC(=O)N2CCC(NC(=O)c3ccc(F)cc3)CC2)c1 77.7%, Cc1ccccc1-c1nc(Cn2c(=O)c3cccnc3n(-c3ccccc3)c2=O)c(C)o1 95.5%, Cn1c(NC(=O)COc2ccccc2)cc(=O)n(C)c1=O 129%, O=C1NC2=C(C(=O)N(Cc3ccc(F)cc3)C2)C(c2ccc([N+](=O)[O-])cc2)N1 (configuration not stated) 12.1%, NC(=O)C1CCN(C(=O)NCc2noc3ccccc23)CC1 127%, COC(=O)C1=C(C)Nc2nc(SCc3ccccc3)[nH]c(=O)c2C1c1cccc(F)c1 (configuration not stated) 90%, Cn1c(=O)[nH]c(=O)c2c1nc(SCc1ccccc1Cl)n2CCc1ccccc1 83.9%, COc1ccc(C(=O)N2CCOC2CNC(=O)C(=O)NCc2ccccc2)cc1 (configuration not stated) 76.4%, COc1cc(/C=C\C(=O)NCCc2cc3cc(C)c(C)cc3[nH]c2=O)cc(OC)c1OC 90.1%, CC(=O)N(C(C)=O)c1ncnc2sc3c(c12)CCCC3 90.2%, Cc1ccc(NC(=S)NCCCNc2nc3cc4c(cc3cc2C#N)OCO4)c(C)c1 111%, COc1ccc(NC(=O)N2CCC(n3cnc4cc(C(F)(F)F)ccc43)CC2)cc1 41%, CC(=O)N1CCCc2ccc(NC(=O)C(=O)NCc3cccnc3)cc21 108%, CCc1nc(NCc2ccc(OC)cc2OC)c2onc(-c3ccccc3)c2n1 46.6%, Cc1ccnc(SCc2cc(=O)c(OC(=O)COc3ccc(F)cc3)co2)n1 113%, CCOCCn1c(SCc2c(F)cccc2Cl)nc2c1c(=O)[nH]c(=O)n2C 106%, Cc1ccc(NC2CC(=O)N(CCc3ccccc3)C2=O)cc1 (configuration not stated) 71.1%, COC(=O)c1ccc(CSc2ncnc3ccccc23)o1 66.1%, CCC(Sc1ccc2nnc(-c3cccnc3)n2n1)C(=O)O (configuration not stated) 94.3%, O=C(N/N=C\c1ccco1)c1cc([N+](=O)[O-])cc([N+](=O)[O-])c1 87.7%, Cc1nn(-c2ccc(-c3noc(C4CC4)n3)cc2)cc1C(=O)N1CCn2c1nc1ccccc12 114%, COc1cc([N+](=O)[O-])cc2sc(NC(=O)CSc3ccc(Cl)cc3)nc12 100%, Cc1nn(C(=O)c2cccnc2)c(C)c1Sc1ccccc1[N+](=O)[O-] 119%, COc1cc(NC(=O)C2(C)CCCO2)ccc1NC(=O)CN1CCOCC1 (configuration not stated) 108%, Cc1cc(-c2cn[nH]c2C2CCN(C(=O)c3ccncc3)CC2)on1 86.6%, O=C(NC1CCCc2ccccc21)c1cc2n(n1)CCCN(Cc1ccccc1)C2=O (configuration not stated) 113%, O=C(COc1ccccc1)Nc1cc(=O)[nH]c(=O)[nH]1 106%, O=C(c1ccco1)N1CCN(c2cc(=O)n(Cc3ccc(F)cc3)c(=O)[nH]2)CC1 97.5%, Cn1c(=O)[nH]c(=O)c2c1nc(Br)n2Cc1ccc(F)cc1 108%, O=C(CCn1c(=S)[nH]c2cc3c(cc2c1=O)OCO3)NCCc1ccc(Cl)cc1 82.2%, Cc1ccc(C(c2sc3ncnn3c2O)N2CCOCC2)cc1 (configuration not stated) 94.5%, CC1=C(C(=O)OCc2ccccc2)C(c2cccs2)C(C#N)=C(N)O1 (configuration not stated) 114%, C=CCOc1ccccc1NC(=O)Cn1c(=O)oc2cc(Cl)ccc21 89.7%, COc1ccc(NC(=O)CSc2ncnc3ccccc23)cc1OC 20.6%, CCOC(=O)c1cccc(NC(=O)CCCc2nc3cccnc3n2Cc2ccc(C)cc2)c1 63.6%, COc1ccc(CNC(=O)CSc2nc3ccc(C(C)C)cc3cc2C#N)cc1 93.4%, CCc1nnc2ccc(C(=O)N3CCN(CC)CC3)cn12 124%, CCn1c(=O)[nH]c2cc(-c3noc(COc4cccc(C)c4)n3)ccc21 16.7%, CCCC(=O)N1CCN(c2c(C)n(C)c(=O)n(C)c2=O)CC1 86.8%, Cc1ccc(S(=O)(=O)Nc2ccc(N3CCn4c(nc5ccccc54)C3)cc2C)cc1 33%, Cn1c(=O)c2c(ncn2CC(=O)c2ccc([N+](=O)[O-])cc2)n(C)c1=O 103%, N#Cc1c(NC(=O)c2ccc(C(=O)Nc3sc4c(c3C#N)CCCC4)s2)sc2c1CCCC2 118%, c1ccc(-c2oc3ncnc(N4CCN(Cc5ccc6c(c5)OCO6)CC4)c3c2-c2ccccc2)cc1 110%, Cn1c(=O)c(-c2noc(C(=O)N3CCC(N4CCCCC4)CC3)n2)nn(-c2ccc(F)cc2)c1=O 86.6%
